The supplement of paper PMC10331698
± gives the standard deviation of the averaged measurements. Most values lie at the level of the controls, where differences are scatter.

Legend:
Test in all cases: level (log10 ratio to DMSO vehicle control); higher = higher biomarker level / cell amount than vehicle control
[1] = compound: C=C(C)C(=O)OCC(F)(F)C(F)(F)C(F)(F)C(F)(F)C(F)(F)C(F)(F)C(F)(F)F; settings: in DMSO
Procedure: (§1)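 BioMAP Diversity Plus panel of 12 human primary cell co-culture systems (3C, 4H, LPS, SAg, BT, BF4T, BE3C, CASM3C, HDF3CGF, KF3CT, MyoF, Mphg). Compounds were added 1 h before stimulation and left for 24 h (MyoF 48 h; BT 72 h for soluble read-outs or 6 d for IgG). Biomarkers were read by ELISA, cytotoxicity by SRB, PBMC viability and proliferation by Alamar Blue. Each well value was divided by the mean of 8 DMSO control wells on the same plate and log10 transformed; duplicate blinded samples were tested at 4 concentrations.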

[2] = compound: C=CC(=O)OCC(F)(F)C(F)(F)C(F)(F)C(F)(F)C(F)(F)C(F)(F)C(F)(F)F [1H,1H-Perfluorooctyl acrylate]; settings: 2200 nM; in DMSO
Procedure: as §1

[3] = compound: C=CC(F)(F)C(F)(F)C(F)(F)C(F)(F)C(F)(F)C(F)(F)C(F)(F)C(F)(F)C=C [1,8-Divinylperfluorooctane]; settings: in DMSO
Procedure: as §1

[4] = compound: COC(=O)C(F)(F)C(F)(F)OC(F)(C(F)(F)F)C(F)(F)OC(F)=C(F)F [Methyl perfluoro(3-(1-ethenyloxypropan-2-yloxy)propanoate)]; settings: in DMSO
Procedure: as §1

[5] = compound: CO[Si](C)(CCC(F)(F)C(F)(F)C(F)(F)C(F)(F)C(F)(F)C(F)(F)F)OC [Dimethoxymethyl((perfluorohexyl)ethyl)silane]; settings: in DMSO
Procedure: as §1

[6] = compound: FC(F)(F)C(F)(F)C(F)(F)CC1CO1 [1H,1H-Heptafluorobutyl epoxide]; settings: 2200 nM; in DMSO
Procedure: as §1

Heptafluorobutyl iodide = compound: FC(F)(F)C(F)(F)C(F)(F)CI [Heptafluorobutyl iodide]; settings: 2200 nM; in DMSO
Procedure: as §1

[7] = compound: NC(=O)C(F)(F)C(F)(F)C(F)(F)C(F)F; settings: in DMSO
Procedure: as §1

Pentafluoropropionamide = compound: NC(=O)C(F)(F)C(F)(F)F [Pentafluoropropionamide]; settings: 2200 nM; in DMSO
Procedure: as §1

[8] = compound: NS(=O)(=O)C(F)(F)C(F)(F)C(F)(F)C(F)(F)C(F)(F)C(F)(F)C(F)(F)C(F)(F)F [Perfluorooctanesulfonamide]; settings: in DMSO
Procedure: as §1

[9] = compound: O=C(O)C(F)(F)C(F)(F)C(F)F [4H-Perfluorobutanoic acid]; settings: in DMSO
Procedure: as §1

[10] = compound: O=P(O)(O)CCC(F)(F)C(F)(F)C(F)(F)C(F)(F)C(F)(F)C(F)(F)F [2-(Perfluorohexyl)ethylphosphonic acid]; settings: 2200 nM; in DMSO
Procedure: as §1

[11] = compound: O=S(=O)(F)C(F)(F)C(F)(F)C(F)(F)C(F)(F)C(F)(F)C(F)(F)C(F)(F)C(F)(F)F [Perfluorooctanesulfonyl fluoride]; settings: 2200 nM; in DMSO
Procedure: as §1

[12] = compound: O=S(=O)(O)C(F)(F)C(F)(F)C(F)(F)C(F)(F)C(F)(F)C(F)(F)C(F)(F)C(F)(F)F [Perfluorooctanesulfonic acid]; settings: 2200 nM; in DMSO
Procedure: as §1

[13] = compound: O=S(=O)(O)C(F)(F)C(F)(F)C(F)(F)C(F)(F)C(F)(F)C(F)(F)C(F)(F)C(F)(F)F [Potassium perfluorooctanesulfonate]; settings: 2200 nM; in DMSO
Procedure: as §1

[14] = compound: O=S(=O)(OCC(F)(F)F)C(F)(F)C(F)(F)C(F)(F)C(F)(F)F [2,2,2-Trifluoroethyl perfluorobutanesulfonate]; settings: 2200 nM; in DMSO
Procedure: as §1

[15] = compound: OCC(F)(F)C(F)(F)C(F)(F)C(F)(F)C(F)(F)C(F)F [1H,1H,7H-Dodecafluoro-1-heptanol]; settings: 2200 nM; in DMSO
Procedure: as §1

[16] = compound: OCCCCC(F)(F)C(F)(F)C(F)(F)C(F)(F)F [4:4 Fluorotelomer alcohol]; settings: 2200 nM; in DMSO
Procedure: as §1

Test System	level (log10) ([1]; 740 nM)	level (log10) ([1]; 2200 nM)	level (log10) [2]	level (log10) ([3]; 740 nM)	level (log10) ([3]; 2200 nM)	level (log10) ([4]; 740 nM)	level (log10) ([4]; 2200 nM)	level (log10) ([5]; 740 nM)	level (log10) ([5]; 2200 nM)	level (log10) [6]	level (log10) (Heptafluorobutyl iodide)	level (log10) ([7]; 2200 nM)	level (log10) ([7]; 6700 nM)	level (log10) ([7]; 20000 nM)	level (log10) ([7]; 60000 nM)	level (log10) (Pentafluoropropionamide)	level (log10) ([8]; 2200 nM)	level (log10) ([8]; 6700 nM)	level (log10) ([8]; 20000 nM)	level (log10) ([9]; 2200 nM)	level (log10) ([9]; 6700 nM)	level (log10) ([9]; 20000 nM)	level (log10) ([9]; 60000 nM)	level (log10) [10]	level (log10) [11]	level (log10) [12]	level (log10) [13]	level (log10) [14]	level (log10) [15]	level (log10) [16]
BT:PBMC Cytotoxicity	0.003 ± 0.045	0.006 ± 0.042	0.019 ± 0.0028	0.012 ± 0.051	0.0245 ± 0.016	0.0335 ± 0.036	0.0355 ± 0.03	-0.014 ± 0.037	0.0165 ± 0.0021	-0.002 ± 0.05	0.027 ± 0.011	-0.0005 ± 0.035	-0.001 ± 0.0042	-0.0015 ± 0.0035	0.016	0.026 ± 0.035	-0.015 ± 0.037	0.0175 ± 0.0064	0.03 ± 0.0099	-0.02 ± 0.0057	-0.0175 ± 0.018	-0.0075 ± 0.0035	-0.002 ± 0.047	0.006 ± 0.031	0.028 ± 0.045	0.0045 ± 0.019	-0.011 ± 0.0085	0.021 ± 0.025	-0.006 ± 0.0071	-0.0165 ± 0.015
SAg:CD38	-0.003 ± 0.0028	-0.0055 ± 0.013	0.007 ± 0.028	-0.001 ± 0.017	-0.022 ± 0.011	0.033 ± 0.071	-0.021 ± 0.089	0.001 ± 0.041	-0.0025 ± 0.00071	0.0335 ± 0.06	-0.0045 ± 0.012	-0.0105 ± 0.012	-0.034 ± 0.014	-0.027 ± 0.02	-0.0295 ± 0.0064	0.01 ± 0.0071	-0.0005 ± 0.043	-0.006 ± 0.0071	-0.089 ± 0.016	0.0465 ± 0.005	0.008 ± 0.028	0.0195 ± 0.0021	0.017 ± 0.021	0.0075 ± 0.00071	0.013 ± 0.0042	-0.008 ± 0.014	-0.017 ± 0.0085	-0.008 ± 0.014	0.005 ± 0.011	-0.008 ± 0.0028
CASM3C:LDLR	0.0265 ± 0.059	0.0005 ± 0.021	0.0105 ± 0.012	0.0265 ± 0.032	-0.0005 ± 0.00071	0.0005 ± 0.012	0.0025 ± 0.005	0.0165 ± 0.025	-0.005 ± 0.013	-0.0065 ± 0.022	0.0075 ± 0.013	-0.001 ± 0.0042	-0.008	-0.006 ± 0.024	0.031 ± 0.042	0.0415 ± 0.046	0.007 ± 0.02	-0.0095 ± 0.011	-0.0165 ± 0.0078	-0.0595 ± 0.0078	-0.0785 ± 0.037	-0.039 ± 0.0042	-0.0235 ± 0.026	-0.0085 ± 0.023	0.0005 ± 0.016	0.0175 ± 0.046	0.039 ± 0.047	0.0085 ± 0.053	0.008 ± 0.059	0.0425 ± 0.018
